Assay results as given in publication PMC8456932 (Angewandte Chemie (International Ed. in English), 2021).

Test: general procedure: Fmoc solid-phase peptide synthesis; Rink Amide MBHA resin; 2-chlorotrityl chloride resin; HBTU, HOBt, DIPEA
Conditions: late stage modification step

Point of comparison: “PEPTIDE1{[ac].E.R.A.A.K.E.R.A.[XCysA].A.E.R.A.A.E.G.G.Y.[am]}$$$$V2.0”, step yield 81%. Against it:
- PEPTIDE1{A.L.F.[XCysA].A.L.[am]}$$$$V2.0 — lower, 61%
- PEPTIDE1{A.[XCysA].A.F.K.D.[am]}$$$$V2.0 — higher, 89%
- PEPTIDE1{F.[XCysA].F.K.A.L.[am]}$$$$V2.0 — higher, 89%
- PEPTIDE1{F.[XCysA].G.P.S.L.[am]}$$$$V2.0 — lower, 67%
- PEPTIDE1{G.[XCysA].A.F.K.T.[am]}$$$$V2.0 — lower, 69%
- PEPTIDE1{G.[XCysA].A.L.N.T.[am]}$$$$V2.0 — higher, 86%
- PEPTIDE1{[ac].L.Q.Q.[XCysA].P.F.E.D.H.[am]}$$$$V2.0 — lower, 78%
- PEPTIDE1{[ac].M.V.R.Q.V.H.K.D.L.I.[XCysA].E.P.N.E.[am]}$$$$V2.0 — lower, 76%
- silylthioester of H-Ala-Cys-Ala-Phe-Lys-Asp-NH2 — lower, 35%

Same assay, conditions: late stage modification step, HPLC-MS

Point of comparison: “silylthioester of H-Ala-Cys-Ala-Phe-Lys-Asp-NH2”, step yield 58%. Against it:
- silylthioester of Ac-Trp-Met-Asn-Ser-Thr-Gly-Phe-Thr-Lys-Val-Cys-Gly-Ala-NH2 — higher, 82%
- silylthioester of H-Gly-Cys-Ala-Phe-Lys-Thr-NH2 — the same, 58%

Same assay, conditions: late stage modification step, calibrated, HPLC-MS

Point of comparison: “PEPTIDE1{[ac].W.M.N.S.T.G.F.T.K.V.[XCysA].G.A.[am]}$$$$V2.0”, step yield 83%. Against it:
- PEPTIDE1{[ac].N.Q.K.L.L.R.W.L.N.[XCysA].F.T.Q.Q.S.Q.[am]}$$$$V2.0 — lower, 38%

Same assay, conditions: late stage modification step, calibrated, HPLC-UV

Point of comparison: “PEPTIDE1{[ac].N.Q.K.L.L.R.W.L.N.[XCysA].F.T.Q.Q.S.Q.[am]}$$$$V2.0”, step yield 77%. Against it:
- PEPTIDE1{[ac].W.M.N.S.T.G.F.T.K.V.[XCysA].G.A.[am]}$$$$V2.0 — higher, 80%

Same assay, conditions: late stage modification step; run 1

In the case of “PEPTIDE1{[ac].F.H.[Cys(CC-TIPS)].Q.V.[Cys(CC-TIPS)].F.I.T.[am]}$$$$V2.0”, the step yield is reported as 31% and 57%.
In the case of “PEPTIDE1{[ac].N.Q.K.L.L.R.W.L.N.[XCysA].F.T.Q.Q.S.Q.[am]}$$$$V2.0”, the step yield is reported as 95% and 51%.

Same assay, conditions: lipidation step

Point of comparison: “PEPTIDE1{F.[XCysB].G.P.S.L.[am]}$$$$V2.0”, step yield 74%. Against it:
- PEPTIDE1{A.[XCysB].A.F.K.D.[am]}$$$$V2.0 — lower, 62%
- PEPTIDE1{F.[XCysB].F.K.A.L.[am]}$$$$V2.0 — higher, 80%
- PEPTIDE1{G.[XCysB].A.F.K.T.[am]}$$$$V2.0 — lower, 72%
- PEPTIDE1{G.[XCysB].A.L.N.T.[am]}$$$$V2.0 — higher, 84%
- PEPTIDE1{[ac].A.[Cys(VBX)].G.F.[am]}$$$$V2.0 — lower, 16%
- PEPTIDE1{[ac].E.R.A.A.K.E.R.A.[XCysB].A.E.R.A.A.E.G.G.Y.[am]}$$$$V2.0 — lower, 47%
- PEPTIDE1{[ac].F.H.[Cys(CC-TIPS)].Q.V.[Cys(CC-TIPS)].F.I.T.[am]}$$$$V2.0 — lower, 57%
- PEPTIDE1{[ac].L.Q.Q.[XCysB].P.F.E.D.H.[am]}$$$$V2.0 — lower, 52%
- PEPTIDE1{[ac].M.V.R.Q.V.H.K.D.L.I.[XCysB].E.P.N.E.[am]}$$$$V2.0 — lower, 50%
- PEPTIDE1{[ac].W.M.N.S.T.G.F.T.K.V.[XCysB].G.A.[am]}$$$$V2.0 — the same, 74%
- palmitoyl thioester of H-Gly-Cys-Ala-Phe-Lys-Thr-NH2 — lower, 34%
- palmitoylthioester of Ac-Trp-Met-Asn-Ser-Thr-Gly-Phe-Thr-Lys-Val-Cys-Gly-Ala-NH2 — lower, 67%

Same assay, conditions: lipidation step, HPLC-MS

Point of comparison: “palmitolyl-ester of Ac-Ala-Cys-Gly-Phe-NH2”, step yield 76%. Against it:
- palmitoyl thioester of H-Gly-Cys-Ala-Phe-Lys-Thr-NH2 — lower, 73%

Same assay, conditions: lipidation step, HPLC-MS relative ratio

Point of comparison: “PEPTIDE1{A.[XCysB].F.G.A.L.[am]}$$$$V2.0”, step yield 82%. Against it:
- Alkynylated Ac-Ala-Cys-Gly-Phe-NH2 — the same, 82%
- PEPTIDE1{A.[XCysA].F.G.A.L.[am]}$$$$V2.0 — higher, 86%
- PEPTIDE1{[ac].A.[Cys(VBX)].G.F.[am]}$$$$V2.0 — lower, 18%
- PEPTIDE1{[ac].A.[XCysA].G.F.[am]}$$$$V2.0 — the same, 82%

Same assay, conditions: lipidation step, calibrated yield

With “PEPTIDE1{[ac].A.[XCysA].G.F.[am]}$$$$V2.0” the step yield was 79%.

Same assay, conditions: lipidation step, calibrated yield, HPLC-MS

“PEPTIDE1{A.[XCysB].F.G.A.L.[am]}$$$$V2.0” gave a step yield of 90%.

Same assay, conditions: lipidation step, calibrated yield, HPLC-UV

In the case of “PEPTIDE1{A.[XCysB].F.G.A.L.[am]}$$$$V2.0”, the step yield is reported as 70%.

Same assay, conditions: lipidation step, calibrated, HPLC-MS

Point of comparison: “palmitoyl thioester of H-Gly-Cys-Ala-Phe-Lys-Thr-NH2”, step yield 40%. Against it:
- PEPTIDE1{A.L.F.[XCysB].A.L.[am]}$$$$V2.0 — higher, 69%

Same assay, conditions: lipidation step, calibrated, HPLC-UV

Point of comparison: “palmitoyl thioester of H-Gly-Cys-Ala-Phe-Lys-Thr-NH2”, step yield 50%. Against it:
- PEPTIDE1{A.L.F.[XCysB].A.L.[am]}$$$$V2.0 — higher, 78%

Same assay, conditions: lipidation step, isolated

Point of comparison: “PEPTIDE1{[ac].A.[XCysA].G.F.[am]}$$$$V2.0”, step yield 36%. Against it:
- PEPTIDE1{A.[XCysB].F.G.A.L.[am]}$$$$V2.0 — the same, 36%

Same assay, conditions: lipidation step; run 1

With “PEPTIDE1{A.L.F.[XCysB].A.L.[am]}$$$$V2.0” the step yield was 76% and 40%.
In the case of “PEPTIDE1{[ac].N.Q.K.L.L.R.W.L.N.[XCysB].F.T.Q.Q.S.Q.[am]}$$$$V2.0”, the step yield is reported as 69% and 51%.

Substance “PEPTIDE1{[ac].W.M.N.S.T.G.F.T.K.V.[Cys(VBX)].G.A.[am]}$$$$V2.0” has a step yield of 17%.

Same assay, conditions: lipidation step; run 2

In the case of “PEPTIDE1{[ac].W.M.N.S.T.G.F.T.K.V.[Cys(VBX)].G.A.[am]}$$$$V2.0”, the step yield is reported as 19%.

Where “and” joins values, the source holds several entries; their conditions need not be identical. Equal entries are not always repeated. Strings that start with PEPTIDE1 are HELM notation: dots part the residues, brackets hold end groups and non-standard residues.
